# The campaign covered roughly 320,000 compounds. About 22,000 (6.9%) were called active. Inconclusive means that the source gave no clear call. Such entries were picked first, then a sample of the others. Calls follow the shape of the dose curve; as a rule, active = well fitted inhibition curve with a large enough effect; inconclusive = small, poorly fitted or top-dose-only effect, or another doubt; inactive = no such curve, though single readings can be large or run the other way. Potencies beside an inconclusive call are fits to weak or partial responses and may not hold up.
# Assay: Primary qHTS for delayed death inhibitors of the malarial parasite plastid, 96 hour incubation
# Details: P. falciparum luciferase reporter growth; series mostly up to 28.7 µM; activity change, negative = inhibition: at the top concentration
# In short: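 96 h incubation, 37 C, 5% CO2, of luciferase-reporter P. falciparum-infected RBCs (2% hematocrit, 0.05% parasitemia final) with test compounds; endpoint luminescence.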
# % is scaled to controls: 0 for no effect and ±100 for the full control effect; potency is read from the fitted curve at half-maximal effect.
SMILES,Potency,"activity change, negative = inhibition"
COc1ccc(C(=O)N/N=C(/C)c2cccc(NC(=O)c3ccccc3F)c2)cc1,"inconclusive: 16.5 µM [inhibitor, single point]",–
O=C(NCCc1ccccc1)C1CCC(=O)N(Cc2cccc(C(F)(F)F)c2)C1 (centres undefined),–,inactive: -18.1%
COc1ccccc1N1CCN(C(=O)c2nn(C)c3c2CS(=O)(=O)c2ccccc2-3)CC1,"inconclusive: 14.7 µM [inhibitor, partial curve, poor fit]",–
Cc1cccnc1NC1(C(F)(F)F)N=C2SCCN2C1=O (centres undefined),–,inactive: 1.68%
O=C(O)C1CCC(N2C(=O)c3c(Cl)c(Cl)c(Cl)c(Cl)c3C2=O)CC1 (centres undefined),"inconclusive: 18.5 µM [inhibitor, single point]",–
COc1ccc(CN(C)CC(=O)Nc2ccccc2-c2ccccc2)c(OC)c1,"inconclusive: 13.1 µM [inhibitor, partial curve, poor fit]",–
COc1ccc(C(=O)Nn2c(C)nc3ccccc3c2=O)c(OC)c1,active: 1.17 µM,–
COc1ccccc1N(C)S(=O)(=O)c1ccc(C(=O)NC(C)c2ccccc2)cc1 (centres undefined),"inconclusive: 9.28 µM [inhibitor, single point]",–
Cn1c(=O)c2c(nc(NCc3ccco3)n2CCc2ccccc2)n(C)c1=O,"inconclusive: 18.5 µM [inhibitor, single point]",–
CCOC(=O)c1c(CN2CCN(C)CC2)oc2ccc(OC)cc12,"inconclusive: 18.5 µM [inhibitor, single point]",–
COc1cc(C(=O)N/N=C(\C)c2ccc3c(c2)OCO3)cc(OC)c1OC,–,inactive: 4.59%
CCCOc1cccc(C(=O)Nc2ccccc2C(=O)N2CCN(C)CC2)c1,–,inactive: -9.04%
CCOc1ccc(S(=O)(=O)Nc2cccc(C(=O)NCC(c3ccco3)N(C)C)c2)cc1 (centres undefined),"inconclusive: 18.5 µM [inhibitor, single point]",–
COc1cc(CCCN2C(N)=NC[C@@H]2c2ccccc2)cc(OC)c1OC,"inconclusive: 18.5 µM [inhibitor, single point]",–
CCOC(=O)C1CCN(C(=O)CC(C)S(=O)(=O)c2ccc3c(c2)NC(=O)CO3)CC1 (centres undefined),"inconclusive: 13.1 µM [inhibitor, partial curve, poor fit]",–
CC(CCc1ccccc1)NC(=O)C1CCN(c2nnc(-n3cccc3)s2)CC1 (centres undefined),"inconclusive: 16.5 µM [inhibitor, single point]",–
O=C(CSc1nc(C2CC2)nc2ccccc12)Nc1cccc(O)c1,"inconclusive: 10.4 µM [inhibitor, partial curve, poor fit]",–
Cc1nn(Cc2ccc(F)cc2)c(C)c1NC(=O)c1noc2c1CCc1ccccc1-2,"inconclusive: 14.7 µM [inhibitor, partial curve]",–
O=C(O)C1C2CCCCC2=C2CCCCC2C1C(=O)c1ccccc1 (centres undefined),–,inactive: 32.2%
O=c1[nH]nc(CNc2ccc(C(F)(F)F)cc2)c2ccccc12,–,inactive: 158%
CN(Cc1ccccc1)c1ncnc2ccc(Br)cc12,–,inactive: 59.3%
COc1cccc(NC(=O)CCC(=O)Nc2cc(OC)c(NC(=O)c3cccs3)cc2OC)c1,–,inactive: -0.118%

SMILES,Potency,"activity change, negative = inhibition"
NS(=O)(=O)c1ccc(CCNC(=O)CSc2nc3ccccc3c(=O)n2CC2CCCO2)cc1 (centres undefined),"inconclusive: 1.31 µM [inhibitor, partial curve, poor fit]",–
CC(Oc1ccc2c(c1)oc(=O)c1ccccc12)C(=O)NCC1CCC(C(=O)O)CC1 (centres undefined),"inconclusive: 10.4 µM [inhibitor, single point]",–
COc1cccc(CNC(=O)CN2C(=O)COc3ccc(S(=O)(=O)N4CCCCC4)cc32)c1,"inconclusive: 9.28 µM [inhibitor, partial curve]",–
O=C(CSc1nnc(-c2ccncc2)n1Cc1ccccc1)NC1CCCc2ccccc21 (centres undefined),"inconclusive: 18.5 µM [inhibitor, single point]",–
c1ccc2oc(N3CCNCC3)nc2c1,–,inactive: -26.2%
COC(=O)Cn1c(C)nc([N+](=O)[O-])c1Br,"inconclusive: 11.7 µM [inhibitor, single point]",–
O=C(NCc1cccs1)c1cc(-c2ccncc2)nc2ccc(Br)cc12,"inconclusive: 7.38 µM [inhibitor, partial curve]",–
N#CCc1ccc(NC(=O)Cn2c(=O)oc3ccccc32)cc1,"inconclusive: 9.28 µM [inhibitor, partial curve, poor fit]",–
COc1cc(OC)c2c(c1)S(=O)(=O)C(c1ccccc1)=C2N,"inconclusive: 0.0657 µM [inhibitor, full curve, poor fit]",–
CC(C)c1ccc(/C=C(\NC(=O)c2ccccc2)C(=O)NCCCn2ccnc2)cc1,–,inactive: -18.1%
CC(C)c1cc(NC(=O)CSc2nnc(-c3ccccc3F)n2C)on1,"inconclusive: 18.5 µM [inhibitor, single point]",–
CCN(CC)CCC(=O)Nc1cccc2c1C(=O)c1ccccc1C2=O,active: 10.4 µM,–
O=C(CC(c1ccccc1)C1CCCCC1=O)c1ccco1 (centres undefined),–,inactive: -28.3%
COc1ccc(N2CC(O)=C(c3nc(-c4ccccc4)cs3)C2=N)cc1,active: 0.465 µM,–
COC(=O)C1OC2(OC1C(=O)OC)c1ccccc1-c1ccccc12 (centres undefined),"inconclusive: 0.522 µM [inhibitor, full curve, poor fit]",–
O=[N+]([O-])c1cccc(-c2noc3c2-c2nc(Cc4cccc5ccccc45)sc2CC3)c1,–,inactive: 0%
Cc1cccc(N2CN(Cc3ccco3)CNC2=S)c1C,"inconclusive: 11.7 µM [inhibitor, single point]",–
CCNC(=S)N/N=C(\C)c1cccc(C(F)(F)F)c1,active: 11.7 µM,–
COc1ccc(Cn2c(=O)[nH]c3cc(C(=O)NCCCN4CCCCCC4)ccc3c2=O)cc1,"inconclusive: 10.4 µM [inhibitor, single point]",–
COC(=O)C1=C(c2cccc(OCc3ccccc3)c2)C[C@@H]2CC[C@H]1N2C(=O)NCc1ccc(C(C)(C)C)cc1,"inconclusive: 6.57 µM [inhibitor, partial curve, poor fit]",–
COc1ccc(/C=C/CN2CCN(CC(C)C)C(CCO)C2)cc1 (centres undefined),active: 4.15 µM,–
FC(F)(F)c1cc(-c2ccco2)nc(NCc2ccc(Cl)cc2)n1,"inconclusive: 11.7 µM [inhibitor, partial curve]",–

# Another view of some results above.
SMILES | Potency | activity change, negative = inhibition
CC(Oc1ccc2c(c1)oc(=O)c1ccccc12)C(=O)NCC1CCC(C(=O)O)CC1 (centres undefined) | inconclusive: 10.4 µM [inhibitor, single point] | –
COc1cccc(CNC(=O)CN2C(=O)COc3ccc(S(=O)(=O)N4CCCCC4)cc32)c1 | inconclusive: 9.28 µM [inhibitor, partial curve] | –

# Source: PubChem BioAssay AID504834 (National Center for Advancing Translational Sciences (NCATS), 2011)
